Experimental findings from the supplement of paper PMC6411743 are described below.

By UniProt entry, the sequences of proteins in these tests, tags left out. Where a name states a change or a piece, a line headed by the entry shows the natural chain unless it says otherwise.
UniProt O75643, whole entry: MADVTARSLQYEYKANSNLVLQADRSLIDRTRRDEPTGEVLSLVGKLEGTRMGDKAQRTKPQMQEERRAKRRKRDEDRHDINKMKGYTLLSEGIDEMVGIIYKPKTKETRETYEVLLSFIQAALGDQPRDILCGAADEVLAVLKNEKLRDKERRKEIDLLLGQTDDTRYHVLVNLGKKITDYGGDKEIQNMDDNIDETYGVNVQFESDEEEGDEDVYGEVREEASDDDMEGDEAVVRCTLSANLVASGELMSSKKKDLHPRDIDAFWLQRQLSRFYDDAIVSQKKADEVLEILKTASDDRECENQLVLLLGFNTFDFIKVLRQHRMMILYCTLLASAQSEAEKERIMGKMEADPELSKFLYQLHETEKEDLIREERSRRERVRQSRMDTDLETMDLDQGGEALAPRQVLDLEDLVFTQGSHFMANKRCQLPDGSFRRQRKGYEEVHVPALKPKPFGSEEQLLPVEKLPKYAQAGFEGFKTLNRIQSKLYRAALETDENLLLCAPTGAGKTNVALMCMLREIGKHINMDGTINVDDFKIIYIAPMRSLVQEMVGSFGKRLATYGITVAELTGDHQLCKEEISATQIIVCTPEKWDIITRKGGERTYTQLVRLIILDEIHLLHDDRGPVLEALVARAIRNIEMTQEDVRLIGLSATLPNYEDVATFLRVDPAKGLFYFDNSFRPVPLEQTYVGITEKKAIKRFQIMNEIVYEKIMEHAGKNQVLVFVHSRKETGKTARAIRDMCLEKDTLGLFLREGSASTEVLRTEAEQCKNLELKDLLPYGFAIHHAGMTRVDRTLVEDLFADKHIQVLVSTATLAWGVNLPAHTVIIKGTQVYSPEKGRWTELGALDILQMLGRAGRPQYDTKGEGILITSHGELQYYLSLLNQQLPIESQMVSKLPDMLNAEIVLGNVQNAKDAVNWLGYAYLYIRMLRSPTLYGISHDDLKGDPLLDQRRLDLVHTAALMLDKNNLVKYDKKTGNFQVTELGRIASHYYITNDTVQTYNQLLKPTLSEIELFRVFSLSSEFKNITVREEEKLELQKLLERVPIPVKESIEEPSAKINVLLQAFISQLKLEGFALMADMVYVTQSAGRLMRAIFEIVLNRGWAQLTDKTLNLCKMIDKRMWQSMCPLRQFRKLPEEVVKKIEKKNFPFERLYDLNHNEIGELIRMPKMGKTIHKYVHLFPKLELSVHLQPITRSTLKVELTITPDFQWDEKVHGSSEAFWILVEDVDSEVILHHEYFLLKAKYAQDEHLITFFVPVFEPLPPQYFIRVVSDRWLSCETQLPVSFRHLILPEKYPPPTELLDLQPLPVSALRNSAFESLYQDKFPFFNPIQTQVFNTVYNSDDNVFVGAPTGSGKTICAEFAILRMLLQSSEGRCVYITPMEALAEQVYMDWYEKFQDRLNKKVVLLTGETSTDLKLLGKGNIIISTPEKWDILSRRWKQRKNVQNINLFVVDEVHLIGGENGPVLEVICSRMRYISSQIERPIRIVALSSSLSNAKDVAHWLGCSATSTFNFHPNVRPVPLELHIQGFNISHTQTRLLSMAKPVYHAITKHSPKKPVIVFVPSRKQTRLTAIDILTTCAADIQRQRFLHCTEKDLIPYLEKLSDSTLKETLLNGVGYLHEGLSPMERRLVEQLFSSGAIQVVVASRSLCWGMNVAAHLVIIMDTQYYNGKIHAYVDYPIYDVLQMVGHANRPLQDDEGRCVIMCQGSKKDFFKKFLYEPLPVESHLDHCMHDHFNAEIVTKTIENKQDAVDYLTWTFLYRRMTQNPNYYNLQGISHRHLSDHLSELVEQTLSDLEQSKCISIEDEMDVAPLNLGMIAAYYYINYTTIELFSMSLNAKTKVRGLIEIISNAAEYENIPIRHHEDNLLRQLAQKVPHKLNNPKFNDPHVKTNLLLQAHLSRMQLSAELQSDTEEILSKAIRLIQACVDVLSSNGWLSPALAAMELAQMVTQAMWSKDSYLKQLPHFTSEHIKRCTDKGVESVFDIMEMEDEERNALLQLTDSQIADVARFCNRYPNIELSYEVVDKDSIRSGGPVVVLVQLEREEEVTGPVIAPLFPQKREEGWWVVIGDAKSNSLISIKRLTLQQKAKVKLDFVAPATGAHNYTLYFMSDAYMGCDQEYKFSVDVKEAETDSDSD
UniProt O95182, whole entry: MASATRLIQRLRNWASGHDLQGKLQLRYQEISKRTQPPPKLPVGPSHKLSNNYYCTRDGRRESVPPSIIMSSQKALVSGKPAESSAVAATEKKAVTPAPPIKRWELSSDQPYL
UniProt O75607: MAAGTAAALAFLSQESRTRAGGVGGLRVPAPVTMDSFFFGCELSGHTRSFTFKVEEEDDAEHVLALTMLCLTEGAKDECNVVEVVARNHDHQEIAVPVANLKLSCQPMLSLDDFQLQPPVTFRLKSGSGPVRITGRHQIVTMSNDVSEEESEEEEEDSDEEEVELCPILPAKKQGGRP
UniProt O75928, whole entry: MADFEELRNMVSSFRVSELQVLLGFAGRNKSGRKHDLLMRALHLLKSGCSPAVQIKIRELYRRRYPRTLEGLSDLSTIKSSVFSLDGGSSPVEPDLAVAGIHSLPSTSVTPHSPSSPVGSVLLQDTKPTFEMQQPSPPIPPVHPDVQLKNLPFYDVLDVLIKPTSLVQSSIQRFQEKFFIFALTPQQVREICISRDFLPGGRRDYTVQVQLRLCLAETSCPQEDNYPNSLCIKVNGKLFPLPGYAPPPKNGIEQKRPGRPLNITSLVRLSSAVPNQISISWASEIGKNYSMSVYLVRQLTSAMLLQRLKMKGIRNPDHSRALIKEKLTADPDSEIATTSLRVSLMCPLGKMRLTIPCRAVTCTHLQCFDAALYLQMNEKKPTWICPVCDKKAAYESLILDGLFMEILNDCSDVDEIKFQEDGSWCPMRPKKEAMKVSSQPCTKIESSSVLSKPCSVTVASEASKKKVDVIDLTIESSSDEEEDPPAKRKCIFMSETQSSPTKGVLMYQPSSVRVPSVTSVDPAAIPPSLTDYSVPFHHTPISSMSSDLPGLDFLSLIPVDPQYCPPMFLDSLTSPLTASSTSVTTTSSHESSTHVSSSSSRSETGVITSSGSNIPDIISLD
UniProt O95239: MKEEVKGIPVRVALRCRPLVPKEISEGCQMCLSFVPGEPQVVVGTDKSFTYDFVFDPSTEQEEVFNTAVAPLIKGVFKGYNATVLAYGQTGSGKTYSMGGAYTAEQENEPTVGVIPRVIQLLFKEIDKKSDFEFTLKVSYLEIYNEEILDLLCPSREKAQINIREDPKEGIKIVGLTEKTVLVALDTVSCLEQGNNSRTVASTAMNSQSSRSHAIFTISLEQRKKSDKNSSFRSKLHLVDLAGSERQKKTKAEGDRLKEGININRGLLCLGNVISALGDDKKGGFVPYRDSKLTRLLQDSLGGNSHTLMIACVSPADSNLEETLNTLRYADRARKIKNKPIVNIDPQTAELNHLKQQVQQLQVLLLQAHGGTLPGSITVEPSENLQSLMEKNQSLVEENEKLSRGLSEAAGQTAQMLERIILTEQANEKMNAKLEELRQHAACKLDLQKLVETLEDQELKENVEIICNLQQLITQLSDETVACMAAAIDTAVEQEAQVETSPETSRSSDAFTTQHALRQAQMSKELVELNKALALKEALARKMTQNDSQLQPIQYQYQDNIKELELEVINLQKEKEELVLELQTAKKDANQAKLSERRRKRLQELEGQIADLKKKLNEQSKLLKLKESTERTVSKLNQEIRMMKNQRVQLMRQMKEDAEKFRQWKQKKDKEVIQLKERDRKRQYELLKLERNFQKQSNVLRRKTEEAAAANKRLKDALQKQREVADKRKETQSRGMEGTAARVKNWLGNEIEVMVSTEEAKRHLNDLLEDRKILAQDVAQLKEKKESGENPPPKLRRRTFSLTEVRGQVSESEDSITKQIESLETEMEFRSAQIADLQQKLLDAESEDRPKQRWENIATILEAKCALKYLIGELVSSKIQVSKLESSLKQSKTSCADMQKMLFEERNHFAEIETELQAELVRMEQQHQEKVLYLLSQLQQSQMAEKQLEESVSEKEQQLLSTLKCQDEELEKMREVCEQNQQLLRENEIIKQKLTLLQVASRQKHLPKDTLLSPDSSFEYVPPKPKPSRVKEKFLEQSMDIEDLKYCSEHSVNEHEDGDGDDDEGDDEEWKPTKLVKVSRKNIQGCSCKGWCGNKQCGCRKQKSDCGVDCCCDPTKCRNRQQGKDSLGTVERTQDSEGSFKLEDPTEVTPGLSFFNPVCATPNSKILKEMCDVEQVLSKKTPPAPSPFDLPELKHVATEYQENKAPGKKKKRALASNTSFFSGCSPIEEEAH
UniProt O75116: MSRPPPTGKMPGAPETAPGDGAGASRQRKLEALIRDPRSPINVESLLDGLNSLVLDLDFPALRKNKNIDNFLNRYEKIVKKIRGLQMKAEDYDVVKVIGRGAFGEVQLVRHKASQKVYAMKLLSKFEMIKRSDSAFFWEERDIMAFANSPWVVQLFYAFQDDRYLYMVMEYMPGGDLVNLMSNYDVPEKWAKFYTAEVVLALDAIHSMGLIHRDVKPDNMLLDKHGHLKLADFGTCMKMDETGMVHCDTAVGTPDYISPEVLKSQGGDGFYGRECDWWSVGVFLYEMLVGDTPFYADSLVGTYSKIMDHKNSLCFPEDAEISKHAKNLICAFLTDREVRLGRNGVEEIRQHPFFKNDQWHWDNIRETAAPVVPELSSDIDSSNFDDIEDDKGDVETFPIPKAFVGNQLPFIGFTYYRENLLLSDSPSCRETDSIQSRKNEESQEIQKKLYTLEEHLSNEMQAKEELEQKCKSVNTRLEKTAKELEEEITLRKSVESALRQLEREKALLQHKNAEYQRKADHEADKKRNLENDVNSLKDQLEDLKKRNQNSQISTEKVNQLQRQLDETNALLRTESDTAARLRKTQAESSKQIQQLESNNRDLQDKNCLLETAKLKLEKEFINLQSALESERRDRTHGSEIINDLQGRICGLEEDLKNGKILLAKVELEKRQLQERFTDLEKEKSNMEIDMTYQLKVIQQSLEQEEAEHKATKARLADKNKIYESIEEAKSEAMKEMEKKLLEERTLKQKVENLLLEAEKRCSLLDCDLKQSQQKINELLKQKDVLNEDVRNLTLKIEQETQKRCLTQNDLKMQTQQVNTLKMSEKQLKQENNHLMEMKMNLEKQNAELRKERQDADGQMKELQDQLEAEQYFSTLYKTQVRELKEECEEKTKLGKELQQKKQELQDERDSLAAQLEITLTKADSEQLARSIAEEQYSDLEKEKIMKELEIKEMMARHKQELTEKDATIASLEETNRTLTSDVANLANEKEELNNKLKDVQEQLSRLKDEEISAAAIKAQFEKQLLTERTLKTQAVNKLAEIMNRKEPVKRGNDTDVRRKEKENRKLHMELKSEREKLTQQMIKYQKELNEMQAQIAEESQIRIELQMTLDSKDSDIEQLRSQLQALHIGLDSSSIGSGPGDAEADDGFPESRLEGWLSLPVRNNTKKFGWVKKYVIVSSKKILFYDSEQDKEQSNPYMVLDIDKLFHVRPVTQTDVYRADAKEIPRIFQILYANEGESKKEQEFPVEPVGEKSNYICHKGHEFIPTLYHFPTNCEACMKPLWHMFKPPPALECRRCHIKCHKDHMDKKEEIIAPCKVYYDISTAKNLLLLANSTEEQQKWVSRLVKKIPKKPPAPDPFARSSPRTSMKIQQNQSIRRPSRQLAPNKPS
UniProt O75396: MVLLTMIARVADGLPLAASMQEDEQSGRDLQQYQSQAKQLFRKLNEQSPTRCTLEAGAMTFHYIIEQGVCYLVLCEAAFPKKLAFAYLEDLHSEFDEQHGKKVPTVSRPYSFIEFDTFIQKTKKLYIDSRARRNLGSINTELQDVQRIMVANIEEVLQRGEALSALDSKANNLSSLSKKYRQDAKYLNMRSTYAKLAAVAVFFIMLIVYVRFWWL
UniProt O75340: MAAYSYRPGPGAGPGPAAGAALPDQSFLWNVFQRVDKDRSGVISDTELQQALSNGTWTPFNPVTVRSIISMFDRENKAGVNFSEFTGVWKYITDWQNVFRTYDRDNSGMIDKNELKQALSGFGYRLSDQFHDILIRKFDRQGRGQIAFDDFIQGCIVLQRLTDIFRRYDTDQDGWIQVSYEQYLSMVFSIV
UniProt P04066: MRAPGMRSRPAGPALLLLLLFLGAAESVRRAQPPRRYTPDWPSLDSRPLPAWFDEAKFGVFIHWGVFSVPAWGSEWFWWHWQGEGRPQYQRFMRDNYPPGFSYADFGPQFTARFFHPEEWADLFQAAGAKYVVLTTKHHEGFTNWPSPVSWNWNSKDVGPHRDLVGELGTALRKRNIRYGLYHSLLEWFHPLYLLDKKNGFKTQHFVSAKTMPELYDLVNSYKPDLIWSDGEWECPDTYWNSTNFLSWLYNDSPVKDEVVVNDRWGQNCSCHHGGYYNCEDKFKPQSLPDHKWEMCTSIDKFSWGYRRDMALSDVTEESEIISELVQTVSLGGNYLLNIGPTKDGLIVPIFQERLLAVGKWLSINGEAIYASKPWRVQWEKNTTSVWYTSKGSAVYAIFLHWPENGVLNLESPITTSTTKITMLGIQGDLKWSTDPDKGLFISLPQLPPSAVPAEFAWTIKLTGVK

± gives the standard deviation of the averaged measurements. Some of the results follow.

Compound in one experiment: Nc1nc2c(ncn2[C@@H]2O[C@H](COP(=O)(O)OP(=O)(O)OP(=O)(O)O)[C@@H](O)[C@H]2O)c(=O)[nH]1 [guanosine triphosphate]
As to the kind of experiment: NP40-soluble protein abundance relative to vehicle (solubility fold change) (ratio); higher = more soluble protein in presence of GTP. The following applies: concentration: 0.5mM. The method in brief:
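Values are fold changes against the detergent-processed vehicle, based on vsn-normalised intensities. Jurkat crude lysate was treated at eight concentrations from 0.1 to 10 mM (10 min at room temperature, then 3 min at 37 °C), solubilised with 0.8% NP40 and benzonase, ultracentrifuged and analysed by TMT-labelled LC-MS/MS over three independent experiments.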
As for TYMS (UniProt P04818), the NP40-soluble protein abundance worked out at 0.967 ± 0.04.

Take SNRNP200 (UniProt O75643): the NP40-soluble protein abundance is 1.14 ± 0.12.

NDUFA7 (UniProt O95182): the NP40-soluble protein abundance came to 1 ± 0.043.

NPM3 (UniProt O75607): the NP40-soluble protein abundance is 1.05 ± 0.038.

Take UniProt O75928 and related entries: the NP40-soluble protein abundance stood at 0.918 ± 0.031.

As to BANF1 (UniProt O75531), the NP40-soluble protein abundance is 2.98 ± 1.1.

With KIF4A (UniProt O95239), the NP40-soluble protein abundance was found to be 1.04 ± 0.021.

For the target P0619_C544|P48735 (UniProt P48735), the NP40-soluble protein abundance was determined as 0.997 ± 0.037.

Take WDHD1 (UniProt O75717): the NP40-soluble protein abundance was 1 ± 0.044.

With ROCK2 (UniProt O75116), the NP40-soluble protein abundance came out at 0.984 ± 0.065.

With IPO7 (UniProt O95373), the NP40-soluble protein abundance worked out at 1.01 ± 0.031.

For UniProt O75396, the NP40-soluble protein abundance amounted to 0.887 ± 0.076.

In the case of PDCD6 (UniProt O75340), the NP40-soluble protein abundance was 0.987 ± 0.058.

FUCA1 (UniProt P04066): the NP40-soluble protein abundance came to 1.03 ± 0.17.

As to RPLP2 (UniProt P05387), the NP40-soluble protein abundance amounted to 0.979 ± 0.062.

On to UTP20 (UniProt O75691), for which the NP40-soluble protein abundance was 1.13 ± 0.12.

Regarding UniProt O75170 and related entries, the NP40-soluble protein abundance worked out at 0.979 ± 0.059.

Staying with this experiment, now noted: concentration: 1mM.
Consider ATP6V1G1 (UniProt O75348), for which the NP40-soluble protein abundance turned out to be 1.03 ± 0.02.

With GRAP2 (UniProt O75791), the NP40-soluble protein abundance was 0.926 ± 0.019.

Take TXNDC12 (UniProt O95881): the NP40-soluble protein abundance was 1.01 ± 0.064.

Take KATNA1 (UniProt O75449): the NP40-soluble protein abundance is 1.03 ± 0.039.

UniProt O75947: the NP40-soluble protein abundance came out at 1.1 ± 0.18.

For CTSV (UniProt O60911), the NP40-soluble protein abundance turned out to be 0.997 ± 0.05.

With ZBED4 (UniProt O75132), the NP40-soluble protein abundance was determined as 1.01 ± 0.088.

With UniProt O75190-2|O75190-4|O75190, the NP40-soluble protein abundance worked out at 1.14 ± 0.083.

With SH3BGRL (UniProt O75368), the NP40-soluble protein abundance is 0.866 ± 0.12.

For the target UniProt O75145 and related entries, the NP40-soluble protein abundance worked out at 0.997 ± 0.063.

In the case of UniProt O75964, the NP40-soluble protein abundance stood at 0.936 ± 0.052.

Consider TK1 (UniProt P04183), for which the NP40-soluble protein abundance is 0.998 ± 0.07.

Regarding UniProt O95551 and related entries, the NP40-soluble protein abundance was 0.948 ± 0.043.

In the case of UniProt O95696 and related entries, the NP40-soluble protein abundance turned out to be 1.02 ± 0.1.

Turning to UniProt O94766 and related entries, the NP40-soluble protein abundance was 0.985 ± 0.027.

For the target STAMBP (UniProt O95630), the NP40-soluble protein abundance worked out at 0.956 ± 0.062.

On to UniProt O95786 and related entries, for which the NP40-soluble protein abundance turned out to be 0.976 ± 0.066.

In the case of UniProt O75164, the NP40-soluble protein abundance came out at 0.9597 ± 0.0062.

With SNX4 (UniProt O95219), the NP40-soluble protein abundance is 1.01 ± 0.067.

Regarding EIF2S1 (UniProt P05198), the NP40-soluble protein abundance turned out to be 0.959 ± 0.026.

Regarding TYMS (UniProt P04818), the NP40-soluble protein abundance worked out at 0.916 ± 0.048.

SNRNP200 (UniProt O75643): the NP40-soluble protein abundance came to 1.08 ± 0.12.

Regarding NDUFA7 (UniProt O95182), the NP40-soluble protein abundance was found to be 1.24 ± 0.21.

Turning to NPM3 (UniProt O75607), the NP40-soluble protein abundance is 1.08 ± 0.095.

As to UniProt O75928 and related entries, the NP40-soluble protein abundance came out at 0.974 ± 0.017.

For the target BANF1 (UniProt O75531), the NP40-soluble protein abundance came to 5.2 ± 3.

As for KIF4A (UniProt O95239), the NP40-soluble protein abundance stood at 1.016 ± 0.0075.

Regarding P0619_C544|P48735 (UniProt P48735), the NP40-soluble protein abundance came out at 0.948 ± 0.014.

With WDHD1 (UniProt O75717), the NP40-soluble protein abundance was 0.968 ± 0.037.

For the target ROCK2 (UniProt O75116), the NP40-soluble protein abundance came out at 0.969 ± 0.052.

Regarding IPO7 (UniProt O95373), the NP40-soluble protein abundance amounted to 0.922 ± 0.047.

As to UniProt O75396, the NP40-soluble protein abundance came to 0.874 ± 0.067.

Turning to PDCD6 (UniProt O75340), the NP40-soluble protein abundance was 0.93 ± 0.053.

Consider FUCA1 (UniProt P04066), for which the NP40-soluble protein abundance was determined as 0.901 ± 0.1.

In the case of RPLP2 (UniProt P05387), the NP40-soluble protein abundance came to 1.13 ± 0.098.

Turning to UTP20 (UniProt O75691), the NP40-soluble protein abundance was 1.15 ± 0.19.

As to UniProt O75170 and related entries, the NP40-soluble protein abundance came to 1.03 ± 0.12.

Staying with this experiment, now noted: concentration: 2mM.
With ATP6V1G1 (UniProt O75348), the NP40-soluble protein abundance stood at 1.08 ± 0.066.

Regarding GRAP2 (UniProt O75791), the NP40-soluble protein abundance worked out at 0.907 ± 0.032.

With TXNDC12 (UniProt O95881), the NP40-soluble protein abundance is 0.964 ± 0.085.

For KATNA1 (UniProt O75449), the NP40-soluble protein abundance came to 0.981 ± 0.041.

As for UniProt O75947, the NP40-soluble protein abundance worked out at 1.05 ± 0.091.

Consider CTSV (UniProt O60911), for which the NP40-soluble protein abundance came to 0.992 ± 0.067.

As to ZBED4 (UniProt O75132), the NP40-soluble protein abundance came out at 0.99 ± 0.018.

As for UniProt O75190-2|O75190-4|O75190, the NP40-soluble protein abundance is 1.14 ± 0.078.

SH3BGRL (UniProt O75368): the NP40-soluble protein abundance came to 0.878 ± 0.14.

Turning to UniProt O75145 and related entries, the NP40-soluble protein abundance stood at 1.03 ± 0.12.

In the case of UniProt O75964, the NP40-soluble protein abundance was found to be 0.911 ± 0.032.

As to TK1 (UniProt P04183), the NP40-soluble protein abundance amounted to 1.03 ± 0.022.

Consider UniProt O95551 and related entries, for which the NP40-soluble protein abundance is 0.935 ± 0.046.

Regarding UniProt O95696 and related entries, the NP40-soluble protein abundance is 1.08 ± 0.085.

Regarding UniProt O94766 and related entries, the NP40-soluble protein abundance came out at 0.963 ± 0.02.

Take STAMBP (UniProt O95630): the NP40-soluble protein abundance turned out to be 0.884 ± 0.068.

For the target UniProt O95786 and related entries, the NP40-soluble protein abundance is 1.04 ± 0.086.

Turning to UniProt O75164, the NP40-soluble protein abundance is 1.02 ± 0.12.

On to SNX4 (UniProt O95219), for which the NP40-soluble protein abundance was 1.07 ± 0.072.

Take EIF2S1 (UniProt P05198): the NP40-soluble protein abundance was 0.9621 ± 0.0068.

As for TYMS (UniProt P04818), the NP40-soluble protein abundance was found to be 0.898 ± 0.015.

With SNRNP200 (UniProt O75643), the NP40-soluble protein abundance stood at 1.18 ± 0.17.

Consider NDUFA7 (UniProt O95182), for which the NP40-soluble protein abundance amounted to 1.18 ± 0.18.

With NPM3 (UniProt O75607), the NP40-soluble protein abundance came to 1.02 ± 0.065.

As for UniProt O75928 and related entries, the NP40-soluble protein abundance stood at 0.895 ± 0.058.

Take BANF1 (UniProt O75531): the NP40-soluble protein abundance came to 5.54 ± 3.3.

Regarding KIF4A (UniProt O95239), the NP40-soluble protein abundance was found to be 1.01 ± 0.029.

For the target P0619_C544|P48735 (UniProt P48735), the NP40-soluble protein abundance was 0.908 ± 0.042.

Turning to WDHD1 (UniProt O75717), the NP40-soluble protein abundance was 0.975 ± 0.038.

With ROCK2 (UniProt O75116), the NP40-soluble protein abundance is 0.96 ± 0.095.

In the case of IPO7 (UniProt O95373), the NP40-soluble protein abundance came out at 0.936 ± 0.056.

UniProt O75396: the NP40-soluble protein abundance amounted to 0.837 ± 0.058.

With PDCD6 (UniProt O75340), the NP40-soluble protein abundance stood at 0.967 ± 0.087.

As to FUCA1 (UniProt P04066), the NP40-soluble protein abundance was found to be 0.881 ± 0.18.

Regarding RPLP2 (UniProt P05387), the NP40-soluble protein abundance amounted to 1.06 ± 0.099.

On to UTP20 (UniProt O75691), for which the NP40-soluble protein abundance was determined as 1.23 ± 0.18.

In the case of UniProt O75170 and related entries, the NP40-soluble protein abundance amounted to 1 ± 0.043.
